Results taken from patent publication US12036228B2, “Treatment of seizure disorders” (Shackelford Pharma Inc., priority 2022, dated 2024).

Test system: male CD-1 mice, 6 Hz (22 mA) corneal stimulus psychomotor seizure
Experiment: Mouse 6 Hz seizure (22 mA) test
Format: in vivo
Conditions: 0.08×0.02 mg/kg
Procedure: This study assessed the anti-epileptic effects of low doses of dronabinol in the mouse 6 Hz seizure (22 mA) test at 4 dose levels. Sixty male CD-1 mice were randomly allocated to 1 of 7 treatment groups outlined in Table 1 below. The mice were purchased from Charles River Laboratories (St. Constant, Quebec, Canada). On the day of the experiment, general health observations and body weight measurements were performed prior to dosing. Thirty (30) minutes after administration of assigned treatments in Table 1, animals underwent a neurological assessment followed immediately by 6 Hz testing. Descriptions of these procedures are provided below.
Dronabinol and sodium valproate were dissolved in their respective vehicles on the day of dosing. Treatments were intraperitoneally administered to the lower right quadrant of the abdomen according to standard operating procedures. Treatment group summaries are included in Table 1.
On the scheduled test day, subjects received a dose of their assigned treatment 30 minutes before the electrical stimulus. Following neurological assessments, animals then received an electrical stimulus (6 Hz, 0.2 millisecond pulse width, 3 second duration, 22 mA) via corneal electrodes moistened with saline (ECT unit 57800; Ugo Basile). […]

CCCCCc1cc(O)c2c(c1)OC(C)(C)[C@@H]1CCC(C)=C[C@@H]21 [Dronabinol]
minimum dose where a reduction of seizure severity score may be observed in humans: 1.6 µg/kg | minimum dose where a reduction of seizure severity score may be observed in humans, daily for a 70 kg human (70 kg human): 0.112 mg daily
